Test results as given in PubChem BioAssay AID1794845 (National Center for Advancing Translational Sciences (NCATS), 2023).
The campaign covered roughly 6,900 compounds. Fewer than 10 were called active. The call rests on the fitted dose curve; in most records, active means well fitted curve in the direction sought with a large enough effect; inconclusive means small, poorly fitted or top-dose-only effect, or another doubt; inactive means no such curve, though single readings can be large or run the other way. Some of the results follow.

Sequences of proteins named here, by UniProt entry; tags and fusion partners are left off. A change or cut given only in a name is not applied to a line headed by its entry.
UniProt C7C422: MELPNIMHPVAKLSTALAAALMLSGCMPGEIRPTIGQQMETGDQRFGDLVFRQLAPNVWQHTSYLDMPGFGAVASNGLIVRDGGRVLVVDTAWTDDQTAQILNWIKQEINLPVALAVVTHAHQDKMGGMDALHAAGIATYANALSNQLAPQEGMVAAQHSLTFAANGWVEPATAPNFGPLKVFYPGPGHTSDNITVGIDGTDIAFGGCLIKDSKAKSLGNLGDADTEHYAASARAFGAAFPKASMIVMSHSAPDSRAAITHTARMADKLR

Molecular target: Metallo-beta-lactamase type 2 (Klebsiella pneumoniae) (UniProt C7C422)
Test: qHTS to identify inhibitors of the New Delhi Metallo-beta-lactamase (NDM): primary screen against the NCATS Gemini Collection; further: % of control where 0% means no effect
Details: NDM-1 enzyme, meropenem hydrolysis, absorbance 300 nm; at 38.4 µM (top of the series) unless noted
How it was run: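 NDM-1 at 2 nM final in 50 mM HEPES pH 7.0, 1 uM ZnSO4, 0.01% Tween20, preincubated >30 min with compound. Meropenem 50 uM final added; absorbance at 300 nm after 30 min.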

Activity % (negative = inhibition), inactive:
NC(=O)CN1C(=O)[C@@H]2CN(C(=O)c3cccs3)CCN2C1=O 1.74% [at 57.5 µM], O=S(=O)(c1ccc(F)cc1)N1CCC(c2noc(C3CC3)n2)C1 (configuration not stated) 8.65%, Cc1cn2nnc(C(=O)NCc3ccc(C(C)C)cc3)c2c(=O)[nH]1 1.22%, O=C(Cc1ccccn1)N1CCC2(CC1)CCN(Cc1cccs1)c1ccccc1O2 0.84%, O=C(COc1ccccc1)Nc1ccc2c(c1)CN(Cc1ccccc1F)C(=O)CO2 -0.468%, CC(C)c1noc([C@@H]2C[C@H](NC(=O)c3ccc(F)cc3)CN2C)n1 12.2% [at 57.5 µM], CCC1(O)CCC12CCN(C(=O)Cc1ccccc1)CC2 (configuration not stated) 0.153%, COc1cccc(CN2Cc3cc(NC(=O)c4ccc(F)cc4F)ccc3OC(C)C2=O)c1 (configuration not stated) 27.3%, O=S1(=O)NCC2(CCN(Cc3ccc(Cl)s3)CC2)Oc2ncccc21 5.08%, Cc1noc([C@@H]2CN(C(=O)c3cc(C4CC4)[nH]n3)C[C@H]2C(N)=O)n1 -2.48%, O=C1COc2ccc(-c3ccsc3)nc2CN1Cc1ccccc1 5.7% [at 57.5 µM], Cc1cnc(C(=O)N2CCC(c3nnc(CN4CCCC4)n3C3CC3)CC2)cn1 4.85%, Cc1nc(C)c(CC(=O)N2CCCC(C)(Cc3ccc4c(c3)OCO4)C2)s1 (configuration not stated) 25.3%, CCCn1ccnc1CN1CCCC12CCN(c1ccc(C(F)(F)F)cn1)CC2 -1.68%, O=C(Nc1cnc(-c2ccc(Cl)cc2)nc1)c1cccs1 0.821%, CCOc1ccccc1C(=O)NC1CC(=O)N(CCc2ccc(F)cc2)C1 (configuration not stated) 4.83%, CCN(CC)Cc1nnc2cc(-c3nc(-c4ccccc4)no3)ccn12 5.04%, Cc1ccc(-c2cn(CC3CCCN(c4cc(C)nc(N)n4)C3)nn2)cc1 (configuration not stated) 10.7%, O=C(Cn1cncn1)N1CCc2onc(C(c3ccccc3)c3ccccc3)c2C1 0.351%, C1=C(c2nc(-c3ccncc3)cc3c2ccn3Cc2cccnc2)CCOC1 17.9% [at 57.5 µM], CCNc1ncc(CN2CCN(c3ccncc3)CC2)cn1 14.7%, O=C(c1ccc(OC(F)F)cc1)N1C[C@H](CO)C[C@H](CN2CCCC2)C1 2.73%, O=C1NC2(CCN(Cc3ccsc3)C2)Oc2ccccc21 (configuration not stated) 3.21% [at 57.5 µM], Cc1nc(-c2ccc(OC3CCN(C(=O)NC4CCCCC4)C3)cc2)no1 (configuration not stated) 0.0723%, CC(C)N1CCN(C(=O)C23CCCC=C2N(c2ccccc2)C(=O)CC3)CC1 (configuration not stated) 2.5%, Cc1nccnc1CN1CCC2(CC1)CCN(Cc1ncc[nH]1)CC2CO (configuration not stated) -5.26%, C[S+](=O)([O-])N1CC2(Cc3ccccc31)CN(C(=O)c1ccc(F)cc1)C2 0.0373%, O=C(c1ccccc1)N1CCC(c2nnc3n2C(C(=O)N2CCN(c4ncccn4)CC2)CC3)CC1 (configuration not stated) -0.117%, O=C(N1CCC(Cc2nc(C3CC3)n[nH]2)CC1)C1(c2ccccc2)CC1 -9.4%, CC(=O)Nc1ccc(NC(=O)C2c3ccccc3C(=O)N(C3CCCC3)C23CCCC3)cc1 (configuration not stated) -2.98%, CCN1C(=O)C2(CCN(S(=O)(=O)c3cc(C)ccc3C)CC2)c2ccccc21 8.14%, CN(C)c1cccc(-c2cnc(NC(=O)c3ccncc3)c3c2CCO3)c1 16% [at 57.5 µM], CN(C)[C@@H]1CN(C(=O)CCc2ccccc2)CC[C@]1(O)c1ccccc1 20%, O=C(CC1CCCCC1)N1CC(n2cc(COCC3CC3)nn2)C1 -1.5%, O=C(c1cccs1)N1Cc2[nH]cnc2C[C@H]1c1nc(-c2ccc3ccccc3c2)no1 3.34% [at 57.5 µM], COC(=O)c1ccc(COCC2=CC(C)(C)Oc3ccc(OC)cc32)cc1 1.26%, CN1C(=O)C(c2ccccc2)CC12CCN(C(=O)c1ccc(F)cc1)CC2 (configuration not stated) -3.55%, CN1CCCN(C(=O)c2ccccc2F)c2ccccc21 0.66%, COCCN1CC2(CCCN(C(=O)CNC(N)=O)C2)CCC1=O (configuration not stated) -0.876%, O=C(c1ccccn1)N1CCC(N2CCCC2=O)CC1 7.98% [at 57.5 µM], CC(C)c1ccc(N2C[C@]34C=C[C@H](O3)C(C(=O)N3CCSCC3)C4C2=O)cc1 (some centres not stated) 0.842%, C=CCN1CC2(CCC1=O)CCN(C(=O)C1CC=CCC1)CC2 (configuration not stated) -3.76%, O=C(CCc1nnn2c1CN(C(=O)c1cccc3[nH]ccc13)CC2)N1CCCC1 26%, Nc1nc(CCC(=O)N[C@@H]2COCC[C@H]2Oc2ccc(CO)cc2)cs1 -3.81%, COCCC(=O)N1CCCN(C(=O)C2CC2)c2ccccc21 -1.91%, CC(C)CCO[C@H]1COCCN(C2CCN(C)CC2)C1 2.73% [at 77.1 µM], CC(C)NC(=O)N1CCOc2ccc(CCC(=O)NCCc3cccnc3)cc2C1 -0.159%, COc1ccc(C(=O)N2CC[C@@](O)(C3CCOCC3)[C@H](C)C2)o1 5.72%, c1ccc(-c2nc(-c3ccc(OC4CNC4)cc3)no2)cc1 0.0588%, O=C1NC2(CCCN(Cc3ccccc3C(F)(F)F)C2)COc2ccccc21 (configuration not stated) 12.8%, COc1cccc(-c2cc(C(=O)N3CCC(Cn4cccn4)CC3)[nH]n2)c1 13.4%, COc1ccc(-c2ccc(C(=O)NCc3cccc(Cl)c3)cc2)nn1 1.87%, CCNC(=O)[C@@H]1C[C@H](NC(=O)CCc2ccccc2)CN1Cc1cnc[nH]1 0.72%, CC[C@@]1(O)CCN(C(=O)c2cccc(CCC(C)(C)O)c2)C[C@H]1O -0.696%, CNC1=C(c2ccc(F)cc2)C(=O)N(Cc2ccccc2)C1 12.4%, CCn1ncnc1C(C)NC(=O)Cn1nc(-c2ccccc2)n(CC)c1=O (configuration not stated) -7.75%, O=C(O)c1cnc(-c2ccccc2)nc1-c1ccncc1 6.13%, O=C(COc1ccccc1)N1CCOC[C@H](Oc2ccccc2)C1 6.86% [at 57.5 µM], Cc1cc(C(=O)N2CC(N(C(=O)NC(C)C)C3CCOCC3)C2)nn1C -2.63%, c1ccc(-c2[nH]nc3ncc(-c4cn[nH]c4)nc23)cc1 2.58% [at 77.1 µM], O=C(NCCc1ccc(Cl)cc1)C1CCc2nnc(CN[S+](=O)([O-])c3ccccc3Cl)n21 (configuration not stated) -0.104%, CC(Cc1ccncc1)Nc1nccc(-c2cnn(-c3ccccc3)c2)n1 (configuration not stated) 8.98%, Cc1oc2ccn(Cc3cccc(F)c3)c(=O)c2c1C(=O)NC1CCCC1 3.3%, C[S+](=O)([O-])NC1CC2(CCN(C(=O)c3ccccc3)CC2)c2ccccc21 (configuration not stated) -1.27%, O=C1Nc2ccccc2CC12CCCN2C1COC1 (configuration not stated) 17.5% [at 57.5 µM], Fc1cccc(-c2cc(-c3cn[nH]c3)c3cncn3c2)c1 3.29% [at 77.1 µM], CCOC(=O)C1CCN(C(=O)C2CCc3nnc(CN[S+](C)(=O)[O-])n32)CC1 (configuration not stated) 19.1%, Cc1cccc(S(=O)(=O)N2CCCC(Cn3c(C4CC4)nc4cccnc43)C2)c1 (configuration not stated) 3.17%, C#CCN(C)C(=O)C[C@@H]1c2nc(NC(=O)CCCCC)sc2C[C@@H]2[C@](C)(CO)[C@H](O)CC[C@]21C 0.767%, COc1ccc(OC)c(S(=O)(=O)NCC2CNCCOC2)c1 (configuration not stated) -0.32%, COCC(=O)N[C@H]1CCN(C(=O)COC)[C@H](C(=O)N[C@H](Cc2ccccc2)C(N)=O)C1 13% [at 57.5 µM], O=C(Cc1ccsc1)Nc1ccc2c(N3CCCC3)ncnc2c1 1.1%, O=C1NCCOCCN(C(=O)NC2CCCCC2)[C@@H]2CCCC[C@H]12 0.348%, COCCCNC(=O)C1(CCO)CCN(c2ncccn2)C1 (configuration not stated) 26.2%, COc1ccc(-c2nc3c(C)cccc3cc2CN2CCC(O)CC2)cc1OC 0.559%, O=c1[nH]nc2n1CCN(C1CCOCC1)CC2 -9.23%, Fc1cnc(N2CCCC(OCc3cccnc3)C2)nc1N1CCOCC1 (configuration not stated) 2.89%, O=C(CC1CCCN(c2cn[nH]c(=O)c2)C1)N1CCCCC1 (configuration not stated) 11.3%, O=C(NCc1ccco1)NC1CCc2nnc(C3CC3)n2CC1 (configuration not stated) 5.01%, O=C(c1cccs1)N1CCc2[nH]nc(-c3cccc(F)c3)c2C1 -1.03%, COc1ccc(C(=O)N2CCC(N3Cc4cnc(C)n4C3=O)CC2)cc1 23.7%, COc1ccc(C2(C(=O)N3CCC[C@H]3c3nc(-c4ccccc4Cl)no3)CC2)cc1 9.01%, CCN1CCN(C(=O)C2CCCN(Cc3ccncc3)CCC(=O)NCC2)CC1 (configuration not stated) 8.36%, O=C(NCc1ccc(F)cc1)C1=NOC2CN(C(=O)Nc3cccnc3)CC12 (configuration not stated) 4.5%, CCc1ccc(S(=O)(=O)N2c3ccccc3CC2c2nnc(C3CCOCC3)o2)cc1 (configuration not stated) 0.344%, CCCS(=O)(=O)NCC1Cn2cccc2C(=O)N1CCOC (configuration not stated) -0.29%, O=C1CC2(CCN(Cc3ccc(C(F)(F)F)cc3)CC2)Oc2ccccc21 0.312%
